# Key:
# [1] = Example 5: filter clogging, ageing test of the bleach-fixing solution without photosensitive material; set-up: key: ◯: scarce clogging; Δ: partial clogging; ×: Substantially the whole filter was clogging, but the liquid could pass through the filter.; ××: the complete clogging, and the liquid extremely difficultly passes through the filter; conditions: 35° C., one week, without passing photosensitive material
# [2] = Example 6: residual rates of developing agent and hydroxylamine in color developer after running process; conditions: chelating agent 0.01 mol/l in color developer; for Residual amount of hydroxylamine (pH 9.85) / Residual amount of main ingredient (pH 9.85): pH 9.85, after running; for Residual amount of hydroxylamine (pH 10.25) / Residual amount of main ingredient (pH 10.25): pH 10.25, after running
# [3] = Example 1: increase in stain during dark wet-heat storage of processed material; conditions: 60° C., 70% RH, 4 weeks
# [4] = Example 8: precipitate in the color developing solution after ageing; set-up: key: ◯: indicates that no precipitate was formed at all.; indicates that the precipitate was formed. The larger the number of X, the more serious the precipitation; conditions: 1 g/l (HEDP 60%: 1.6 g/l); 5 ppm ferric ion, 150 ppm calcium ion; 38° C., 20 days
# [5] = Example 11: increase in magenta stain on ageing of material processed with stabilizer; conditions: 100 mg/l in stabilizer; 45° C., 70% RH, one week
# [6] = Example 2: Blix decoloring, Dmax (R light) before and after reprocessing (PEDTA)
# [7] = Example 9: difference in B density between aged and fresh color developer; conditions: aged (38° C., 30 days) minus fresh developer; 0.01 mol chelating compound; 5 ppm ferric, 150 ppm calcium ion
# [8] = Example 6: precipitate in the color developing solution after running process; set-up: key: ◯: indicates that the solution contained no precipitate at all.; X: indicates that the larger the numeral, the larger the amount of the precipitate in the solution; conditions: color developing solution of pH 10.25 after running
# [9] = Example 10: turbidity of fixing bath with added ferric ion after ageing; conditions: 3 g/l in fixing bath with ferric ion, 38° C., 30 days
# [10] = Example 1: bleaching fog, Dmin (G light) versus standard bleaching solution; conditions: relative to standard bleaching solution (Dmin 0.60)
# [11] = Example 2: residual silver after bleach-fixing (PBlix), fluorescent X-ray method; conditions: 35° C., chelating agent with ferric nitrate
# [12] = Example 8: developing agent remaining in aged color developer with added ferric and calcium ion, HPLC; conditions: 1 g/l (HEDP 60%: 1.6 g/l), 5 ppm ferric ion, 150 ppm calcium ion, 38° C., 20 days
# [13] = Example 1: residual silver in highest density part after running bleach-fixing process (NBlix), fluorescent X-ray analysis; conditions: chelating agent 0.17 mol/l with ferric nitrate in bleach-fixing bath, 110 sec, 45° C.
# [14] = Example 9: precipitation in the color developer after ageing, macroscopic; set-up: key: G represents no precipitate at all.; Larger the number of B's, the larger the amount of the precipitate; conditions: 38° C., 30 days; 0.01 mol chelating compound; 5 ppm ferric, 150 ppm calcium ion
SMILES,Clogging of filter [1],Residual amount of hydroxylamine (pH 9.85) [2],Residual amount of main ingredient (pH 9.85) [2],Residual amount of hydroxylamine (pH 10.25) [2],Residual amount of main ingredient (pH 10.25) [2],Increase in stain ΔD (G) [3],Precipitation [4],increase in the magenta stain ΔDmin [5],Blix decoloring ΔDmax (R) ([6]; bleach-fixing time 20 sec),Blix decoloring ΔDmax (R) ([6]; bleach-fixing time 45 sec),ΔDmax [7],Precipitation [8],turbidity of the solution [9],Bleaching fog ΔDmin (G) [10],Quantity of residual silver ([11]; bleach-fixing time 20 sec),Quantity of residual silver ([11]; bleach-fixing time 45 sec),Residual amount of main ingredient (pH 9.85) [12],Residual amount of main ingredient (pH 10.25) [12],Amount of residual silver [13],Precipitate [14]
CN(CCN(C)C(CC(=O)O)C(=O)O)C(CC(=O)O)C(=O)O (stereo not drawn) [Compound 1],◯,79%,80%,77%,78%,0.01,◯,0.09,0.00,0.00,−0.05,◯,kept the transparency,0.00,3.1 μg/cm^2,1.0 μg/cm^2,83%,78%,5.2 μm/cm^2,G
CN(CCNC(CC(=O)O)C(=O)O)C(CC(=O)O)C(=O)O (stereo not drawn) [Compound 2],◯,85%,86%,80%,83%,0.01,◯,0.08,0.00,0.00,−0.04,◯,kept the transparency,0.00,2.0 μg/cm^2,0.9 μg/cm^2,87%,81%,4.4 μm/cm^2,G
CN(CCN(CCN(C)C(CC(=O)O)C(=O)O)CC(=O)O)C(CC(=O)O)C(=O)O (stereo not drawn) [Compound 11],,85%,86%,81%,84%,,◯,0.09,,,−0.04,◯,kept the transparency,,,,89%,84%,,G
CN(CCN(C)C(C(=O)O)C(O)C(=O)O)C(C(=O)O)C(O)C(=O)O (stereo not drawn) [Compound 19],◯,72%,80%,71%,77%,0.01,◯,0.11,0.00,0.00,−0.05,◯,kept the transparency,0.01,4.0 μg/cm^2,1.8 μg/cm^2,82%,78%,7.9 μm/cm^2,G

# — patent US6340560B1, “Aminopolycarboxylic acid chelating agent, heavy metal chelate compound thereof, photographic additive and processing method” (Fuji Photo Film Co., Ltd., priority 1996, dated 2002)
